{"source": "PubChem BioAssay AID1259405, NCATS – 2018", "aim": "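Silenced genes that increase secreted GFP made by CHO cells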 (primary screen)", "cells": "Chinese hamster CHO-K1 ovary cells with stable secreted eGFP expression", "knock-down reagent": "single siRNA against mouse genes, 0.8 pmol siRNA per well (2 µl of 400 nM stock)", "time to read-out": "3 days", "detection": "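Per-well intracellular GFP measured by laser scanning cytometry, plus viability from ATP luminescence, each relative to plate median of non-targeting control wells, in %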", "scale": "GFP, % of control: higher = more GFP per well, higher productivity; viability (ATP), % of control: higher = more viable cells (more ATP)", "active means": "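a knock-down is called active if GFP reaches 120% or more of non-targeting control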", "note": "The deposit covers about 50,000 reagents; shown is a random part of them. About 4,000 of them (8%) count as active. 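Mouse siRNA library applied to hamster cells; one well for each siRNA.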 Unmarked entries are inactive. Reagents against one gene are numbered here."}
The first 2 records as a preview:
{"gene": "Or2t29", "siRNA no.": 1, "GFP, % of control": 94.9, "viability (ATP), % of control": 79.1}
{"gene": "Or2t29", "siRNA no.": 2, "GFP, % of control": 97.5, "viability (ATP), % of control": 98.3}

Results, from the first entry:
{"gene": "Or2t29", "siRNA no.": 1, "GFP, % of control": 94.9, "viability (ATP), % of control": 79.1}
{"gene": "Or2t29", "siRNA no.": 2, "GFP, % of control": 97.5, "viability (ATP), % of control": 98.3}
{"gene": "Or2t29", "siRNA no.": 3, "GFP, % of control": 52.8, "viability (ATP), % of control": 67}
{"gene": "Pcdhb13", "siRNA no.": 1, "GFP, % of control": 69.2, "viability (ATP), % of control": 82.7}
{"gene": "Pcdhb13", "siRNA no.": 2, "GFP, % of control": 87.4, "viability (ATP), % of control": 69}
{"gene": "Afg1l", "siRNA no.": 1, "GFP, % of control": 103, "viability (ATP), % of control": 69.8}
{"gene": "Afg1l", "siRNA no.": 2, "GFP, % of control": 93.8, "viability (ATP), % of control": 67.9}
{"gene": "Afg1l", "siRNA no.": 3, "GFP, % of control": 54.3, "viability (ATP), % of control": 73.6}
{"gene": "Scgn", "siRNA no.": 1, "GFP, % of control": "130 (active)", "viability (ATP), % of control": 103}
{"gene": "Scgn", "siRNA no.": 2, "GFP, % of control": 96.7, "viability (ATP), % of control": 81.8}
{"gene": "Ubash3a", "siRNA no.": 1, "GFP, % of control": 54.5, "viability (ATP), % of control": 64.5}
{"gene": "Ubash3a", "siRNA no.": 2, "GFP, % of control": 78.4, "viability (ATP), % of control": 84.3}
{"gene": "Ubash3a", "siRNA no.": 3, "GFP, % of control": 53.6, "viability (ATP), % of control": 94.8}
{"gene": "Ulk1", "siRNA no.": 1, "GFP, % of control": "121 (active)", "viability (ATP), % of control": 89.1}
{"gene": "Ulk1", "siRNA no.": 2, "GFP, % of control": 65.4, "viability (ATP), % of control": 67.6}
{"gene": "Ulk1", "siRNA no.": 3, "GFP, % of control": 59.7, "viability (ATP), % of control": 68.4}
{"gene": "Taar7e", "siRNA no.": 1, "GFP, % of control": 62.7, "viability (ATP), % of control": 56.4}
{"gene": "Taar7e", "siRNA no.": 2, "GFP, % of control": 68, "viability (ATP), % of control": 70.4}
{"gene": "Taar7e", "siRNA no.": 3, "GFP, % of control": 60.8, "viability (ATP), % of control": 71.5}
{"gene": "Cptp", "siRNA no.": 1, "GFP, % of control": 103, "viability (ATP), % of control": 72.3}
{"gene": "Cptp", "siRNA no.": 2, "GFP, % of control": 79.6, "viability (ATP), % of control": 71.5}
{"gene": "Cptp", "siRNA no.": 3, "GFP, % of control": 83.8, "viability (ATP), % of control": 90.8}
{"gene": "Carmil1", "siRNA no.": 1, "GFP, % of control": 64.9, "viability (ATP), % of control": 72.3}
{"gene": "Carmil1", "siRNA no.": 2, "GFP, % of control": 101, "viability (ATP), % of control": 80.7}
{"gene": "Carmil1", "siRNA no.": 3, "GFP, % of control": 13.4, "viability (ATP), % of control": 21.4}
{"gene": "Sirt7", "siRNA no.": 1, "GFP, % of control": 70, "viability (ATP), % of control": 64.5}
{"gene": "Sirt7", "siRNA no.": 2, "GFP, % of control": 71.7, "viability (ATP), % of control": 66.2}
{"gene": "Sirt7", "siRNA no.": 3, "GFP, % of control": 111, "viability (ATP), % of control": 69.4}
